Source: PubChem BioAssay AID328 (DTP/NCI, 2004)
The list is a part of this screen's results and no random one: it is rich in T/C values a quarter to a half above the control, in often repeated tests (any T/C) and in doses without a T/C. Other doses and runs of a compound stand elsewhere. T/C gives the treated animals as a percentage of the vehicle group. Some doses have a count of surviving animals in place of a T/C: the source files T/C as zero there, which appears to mark a toxic dose or a test without result, not a measured value. Some survivor counts are full or nearly so, which does not show that the dose was tolerated: the source hardly ever lists a survival T/C far under the control, and the zero likely stands for such cases as well. Counts of survivors are from the toxicity check (mostly the fifth day) where no day follows; animals may have died later. Schedules are NCI's codes, taken here to give the interval after Q, in days (D) or hours (H), and the number of doses after X. Some entries hold several experiments; their values stand side by side, smallest first. For survival time, the PubChem record calls one and a half times the control and up active, and a quarter to a half above the control has no call in these data; cut-offs in other NCI protocols can differ.

Test system: BDF1 mice, P388 leukemia ip, median survival T/C
Assay: NCI In Vivo Anticancer Drug Screen. Data for tumor model P388 Leukemia (intraperitoneal) in B6D2F1 (BDF1) mice
Conditions: T/C endpoint: median survival time, higher T/C = longer survival
In short: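 Steps: implant the tumour, treat one group with compound and another with vehicle, record survival, then divide treated by control.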

[1] = dose: 200.0 mg/kg/injection, schedule: Q01DX009 (ip), vehicle: saline with Tween-80
[2] = dose: 100.0 mg/kg/injection, schedule: Q01DX009 (ip), vehicle: saline with Tween-80
[3] = dose: 100.0 mg/kg/injection, schedule: Q01DX009 (ip), vehicle: saline
[4] = dose: 20.0 mg/kg/injection, schedule: Q04DX003 (ip), vehicle: saline
[5] = dose: 100.0 mg/kg/injection, schedule: Q01DX009 (ip), vehicle: Klucel (hydroxypropylcellulose) (HPC)

## C=C1C(C2(C)C(OC(C)=O)CC(=O)OC(C)(COC(C)=O)C2CC(=O)OC)C(OC=O)C(OC(=O)C(O)C(C)CC)C2(C)C(c3ccoc3)CC(=O)C12O (stereo not drawn)
dose: 15.0 mg/kg/injection, schedule: Q01DX009 (ip), vehicle: Klucel (hydroxypropylcellulose) (HPC)
  survivor count: 5 of 6

## NC(=S)c1cncnc1N
dose: 200.0 mg/kg/injection, schedule: Q04DX003 (ip), vehicle: saline with Tween-80
  survivor count: 0 of 6
dose: 400.0 mg/kg/injection, schedule: Q04DX003 (ip), vehicle: saline with Tween-80
  survivor count: 0 of 6

## CCOC(=O)N1CCN(CCCCCOc2ccccc2C2CCCCC2)CC1
[1]
  T/C: 126 % of control

## O=C1NC(=O)C(CSCc2ccccc2)(CSCc2ccccc2)N1
[1]
  survivor count: 6 of 6

## CCOC(=O)/C(=N\O)C1=CSC2=NNC(C)(C)N12
[2]
  survivor count: 6 of 6

## CS(=O)(=O)Nc1ccc(C(=O)CCN2CCCCCC2)cc1
[3]
  T/C: 130 and 143 % of control
dose: 200.0 mg/kg/injection, schedule: Q01DX009 (ip), vehicle: saline
  survivor count: 1 of 6 and 2 of 6

## Cc1cc(NCCCN(C)C)c2ccc3c(ccc4c(NCCCN(C)C)cc(C)nc43)c2n1
dose: 50.0 mg/kg/injection, schedule: Q01DX009 (ip), vehicle: saline with Tween-80
  T/C: 125 % of control
[2]
  survivor count: 0 of 6
[1]
  survivor count: 0 of 6

## C=CCOCCN1CCN(CCCN2c3ccccc3Sc3ccc(C(F)(F)F)cc32)CC1
dose: 5.0 mg/kg/injection, schedule: Q04DX003 (ip), vehicle: saline
  T/C: 125 % of control
dose: 10.0 mg/kg/injection, schedule: Q04DX003 (ip), vehicle: saline
  T/C: 142 % of control
[4]
  T/C: 144 % of control
  survivor count: 6 of 6
dose: 40.0 mg/kg/injection, schedule: Q04DX003 (ip), vehicle: saline
  survivor count: 3 of 6 and 5 of 6

## CN(N=O)c1ccc(/C=C/c2ccnc3ccccc23)cc1
dose: 50.0 mg/kg/injection, schedule: Q01DX009 (ip), vehicle: saline sonified
  T/C: 125 % of control
dose: 200.0 mg/kg/injection, schedule: Q01DX009 (ip), vehicle: saline sonified
  T/C: 140 % of control

## CCCCCCCC[N+](C)(CCCCCCCC)CCCCCCCC
dose: 3.25 mg/kg/injection, schedule: Q01DX001 (ip), vehicle: saline
  survivor count: 0 of 6 and 4 of 6
dose: 4.0 mg/kg/injection, schedule: Q01DX009 (ip), vehicle: saline
  survivor count: 5 of 6
dose: 4.6 mg/kg/injection, schedule: Q01DX009 (ip), vehicle: saline
  survivor count: 1 of 6
dose: 6.5 mg/kg/injection, schedule: Q01DX001 (ip), vehicle: saline
  survivor count: 3 of 6
dose: 7.0 mg/kg/injection, schedule: Q01DX009 (ip), vehicle: saline
  survivor count: 2 of 6
dose: 9.3 mg/kg/injection, schedule: Q04DX003 (ip), vehicle: saline
  survivor count: 4 of 6
dose: 10.0 mg/kg/injection, schedule: Q01DX009 (ip), vehicle: saline
  survivor count: 1 of 6
dose: 13.0 mg/kg/injection, schedule: Q01DX001 (ip), vehicle: saline
  survivor count: 0 of 6

## O=S(=O)(O)c1ccc(-c2ccccc2)cc1
[5]
  survivor count: 5 of 6
dose: 200.0 mg/kg/injection, schedule: Q01DX009 (ip), vehicle: Klucel (hydroxypropylcellulose) (HPC)
  survivor count: 5 of 6
dose: 200.0 mg/kg/injection, schedule: Q04DX003 (ip), vehicle: Klucel (hydroxypropylcellulose) (HPC)
  survivor count: 6 of 6
dose: 400.0 mg/kg/injection, schedule: Q01DX009 (ip), vehicle: Klucel (hydroxypropylcellulose) (HPC)
  survivor count: 0 of 6
dose: 400.0 mg/kg/injection, schedule: Q04DX003 (ip), vehicle: Klucel (hydroxypropylcellulose) (HPC)
  survivor count: 5 of 6

## CC(=O)CC(=O)Nc1nc2ccccc2s1
[3]
  survivor count: 5 of 6

## CCOC(=O)CN1C(=O)C(Cl)=C(Cl)C1=O
dose: 12.5 mg/kg/injection, schedule: Q01DX009 (ip), vehicle: Klucel (hydroxypropylcellulose) (HPC)
  survivor count: 3 of 6
dose: 45.0 mg/kg/injection, schedule: Q04DX003 (ip), vehicle: Klucel (hydroxypropylcellulose) (HPC)
  survivor count: 3 of 6
dose: 65.0 mg/kg/injection, schedule: Q04DX003 (ip), vehicle: Klucel (hydroxypropylcellulose) (HPC)
  survivor count: 0 of 6

## N#CCNC(=O)c1ccccc1
dose: 25.0 mg/kg/injection, schedule: Q01DX009 (ip), vehicle: Klucel (hydroxypropylcellulose) (HPC)
  survivor count: 6 of 6
dose: 50.0 mg/kg/injection, schedule: Q01DX009 (ip), vehicle: Klucel (hydroxypropylcellulose) (HPC)
  survivor count: 5 of 6
[5]
  survivor count: 0 of 6
